# Test results reported in publication PMC2830456.
# Sequences of proteins named here, by UniProt entry; tags and fusion partners are left off.
# UniProt O75925: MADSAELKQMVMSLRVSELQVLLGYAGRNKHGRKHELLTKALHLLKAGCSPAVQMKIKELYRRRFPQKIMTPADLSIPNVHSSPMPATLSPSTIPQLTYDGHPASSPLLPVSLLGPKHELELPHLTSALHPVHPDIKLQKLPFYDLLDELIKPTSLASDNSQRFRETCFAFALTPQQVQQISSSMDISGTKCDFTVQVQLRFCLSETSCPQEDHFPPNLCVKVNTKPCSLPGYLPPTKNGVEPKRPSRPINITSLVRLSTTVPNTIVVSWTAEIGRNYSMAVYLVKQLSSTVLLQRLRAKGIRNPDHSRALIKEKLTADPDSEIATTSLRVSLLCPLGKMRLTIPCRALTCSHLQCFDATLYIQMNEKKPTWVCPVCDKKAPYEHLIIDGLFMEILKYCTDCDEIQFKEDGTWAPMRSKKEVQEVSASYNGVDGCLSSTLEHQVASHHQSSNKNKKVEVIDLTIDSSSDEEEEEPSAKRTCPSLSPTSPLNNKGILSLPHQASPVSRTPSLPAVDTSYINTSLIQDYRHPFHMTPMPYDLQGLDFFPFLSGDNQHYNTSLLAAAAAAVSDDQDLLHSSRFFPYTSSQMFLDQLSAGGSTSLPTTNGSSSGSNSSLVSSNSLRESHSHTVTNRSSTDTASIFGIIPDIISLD
# UniProt P63279: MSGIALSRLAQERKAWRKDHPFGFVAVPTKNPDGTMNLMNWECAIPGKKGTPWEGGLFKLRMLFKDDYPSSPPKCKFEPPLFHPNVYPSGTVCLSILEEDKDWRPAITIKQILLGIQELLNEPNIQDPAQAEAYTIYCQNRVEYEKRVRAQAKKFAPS
# These are yes or no findings as the source states them, for the method shown. For part of these data: Binding seen in cells or lysates may run through a third protein. Some binding calls cover weakened binding; strength is not graded here. Tags and fused reporters may be left off the sequences shown.
# T1: myc-FOXL2 (human) (UniProt P58012)
# T1 sequence: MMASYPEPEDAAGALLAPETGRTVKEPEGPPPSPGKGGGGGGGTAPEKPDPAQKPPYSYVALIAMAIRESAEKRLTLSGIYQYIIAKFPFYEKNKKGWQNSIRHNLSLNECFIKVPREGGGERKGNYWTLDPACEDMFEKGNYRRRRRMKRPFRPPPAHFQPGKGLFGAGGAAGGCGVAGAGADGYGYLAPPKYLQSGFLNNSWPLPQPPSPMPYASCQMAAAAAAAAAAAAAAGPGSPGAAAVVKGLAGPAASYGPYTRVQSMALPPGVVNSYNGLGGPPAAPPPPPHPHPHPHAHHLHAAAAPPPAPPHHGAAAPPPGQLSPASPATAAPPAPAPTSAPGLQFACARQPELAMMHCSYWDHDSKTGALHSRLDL
# T2: FOXL2 (forkhead transcription factor), full length, yeast two-hybrid fusion (human) (UniProt P58012)
# T2 sequence: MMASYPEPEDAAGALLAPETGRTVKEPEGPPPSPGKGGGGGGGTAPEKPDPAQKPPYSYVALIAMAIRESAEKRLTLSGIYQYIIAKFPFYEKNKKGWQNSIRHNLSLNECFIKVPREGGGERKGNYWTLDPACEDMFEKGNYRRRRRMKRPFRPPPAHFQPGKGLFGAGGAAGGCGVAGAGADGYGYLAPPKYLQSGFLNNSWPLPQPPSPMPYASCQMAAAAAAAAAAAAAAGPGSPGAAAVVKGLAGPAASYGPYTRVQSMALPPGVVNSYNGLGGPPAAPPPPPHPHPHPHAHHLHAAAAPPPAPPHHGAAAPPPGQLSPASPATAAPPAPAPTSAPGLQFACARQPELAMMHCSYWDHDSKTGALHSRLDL
# Columns and labels:
# myc-FOXL2 (human) = molecular target: T1, myc-FOXL2 (human); experiment: co-IP; COS-7 cells co-transfected; lysates in modified RIPA buffer with NEM, diluted 4-fold in co-immunoprecipitation buffer; anti-myc agarose conjugate overnight at 4°C; Western blot with anti-FOXL2, anti-PIAS1, anti-UBC9 and anti-tag antibodies
# [1] = molecular target: T2, FOXL2 (forkhead transcription factor), full length, yeast two-hybrid fusion (human); experiment: two-hybrid; co-transformation of AH109 yeast with full-length FOXL2 in pGBKT7 and full-length PIAS1 or UBC9 in pGADT7, and with the vectors switched; strength by liquid beta-galactosidase assays (data not shown)
# [2] = molecular target: PIAS1, full length, yeast two-hybrid fusion (human) (UniProt O75925); experiment: as above
# [3] = molecular target: UBC9, full length, yeast two-hybrid fusion (human) (UniProt P63279); experiment: as above
# myc-PIAS1 (human) = myc-PIAS1 (human) (UniProt O75925); experiment: co-IP; COS-7 cells co-transfected; lysates in modified RIPA buffer with NEM, diluted 4-fold in co-immunoprecipitation buffer; anti-myc agarose conjugate overnight at 4°C; Western blot with anti-FOXL2, anti-PIAS1, anti-UBC9 and anti-tag antibodies
molecule,measurement,setting,value
HA-UBC9 (from UniProt P63279 1-158) (enzyme),binding,myc-FOXL2 (human),binds
"PIAS1, full length, yeast two-hybrid fusion (from UniProt O75925 1-651)",binding,[1],binds
"UBC9, full length, yeast two-hybrid fusion (from UniProt P63279 1-158) (enzyme)",binding,[1],binds
"FOXL2 (forkhead transcription factor), full length, yeast two-hybrid fusion (protein, UniProt P58012 1-376) MMASYPEPEDAAGALLAPETGRTVKEPEGPPPSPGKGGGGGGGTAPEKPDPAQKPPYSYVALIAMAIRESAEKRLTLSGIYQYIIAKFPFYEKNKKGWQNSIRHNLSLNECFIKVPREGGGERKGNYWTLDPACEDMFEKGNYRRRRRMKRPFRPPPAHFQPGKGLFGAGGAAGGCGVAGAGADGYGYLAPPKYLQSGFLNNSWPLPQPPSPMPYASCQMAAAAAAAAAAAAAAGPGSPGAAAVVKGLAGPAASYGPYTRVQSMALPPGVVNSYNGLGGPPAAPPPPPHPHPHPHAHHLHAAAAPPPAPPHHGAAAPPPGQLSPASPATAAPPAPAPTSAPGLQFACARQPELAMMHCSYWDHDSKTGALHSRLDL",binding,[2],binds
same,binding,[3],binds
"HA-FOXL2 (protein, UniProt P58012 1-376) MMASYPEPEDAAGALLAPETGRTVKEPEGPPPSPGKGGGGGGGTAPEKPDPAQKPPYSYVALIAMAIRESAEKRLTLSGIYQYIIAKFPFYEKNKKGWQNSIRHNLSLNECFIKVPREGGGERKGNYWTLDPACEDMFEKGNYRRRRRMKRPFRPPPAHFQPGKGLFGAGGAAGGCGVAGAGADGYGYLAPPKYLQSGFLNNSWPLPQPPSPMPYASCQMAAAAAAAAAAAAAAGPGSPGAAAVVKGLAGPAASYGPYTRVQSMALPPGVVNSYNGLGGPPAAPPPPPHPHPHPHAHHLHAAAAPPPAPPHHGAAAPPPGQLSPASPATAAPPAPAPTSAPGLQFACARQPELAMMHCSYWDHDSKTGALHSRLDL",binding,myc-PIAS1 (human),binds
